The record followed here is the supplement of paper PMC12067093, “Discovery and optimisation of a covalent ligand for TRIM25 and its application to targeted protein ubiquitination” (Chemical Science, 2025).

By UniProt entry, the sequences of proteins in these tests, tags left out. Where a name states a change or a piece, a line headed by the entry shows the natural chain unless it says otherwise.
UniProt P09884: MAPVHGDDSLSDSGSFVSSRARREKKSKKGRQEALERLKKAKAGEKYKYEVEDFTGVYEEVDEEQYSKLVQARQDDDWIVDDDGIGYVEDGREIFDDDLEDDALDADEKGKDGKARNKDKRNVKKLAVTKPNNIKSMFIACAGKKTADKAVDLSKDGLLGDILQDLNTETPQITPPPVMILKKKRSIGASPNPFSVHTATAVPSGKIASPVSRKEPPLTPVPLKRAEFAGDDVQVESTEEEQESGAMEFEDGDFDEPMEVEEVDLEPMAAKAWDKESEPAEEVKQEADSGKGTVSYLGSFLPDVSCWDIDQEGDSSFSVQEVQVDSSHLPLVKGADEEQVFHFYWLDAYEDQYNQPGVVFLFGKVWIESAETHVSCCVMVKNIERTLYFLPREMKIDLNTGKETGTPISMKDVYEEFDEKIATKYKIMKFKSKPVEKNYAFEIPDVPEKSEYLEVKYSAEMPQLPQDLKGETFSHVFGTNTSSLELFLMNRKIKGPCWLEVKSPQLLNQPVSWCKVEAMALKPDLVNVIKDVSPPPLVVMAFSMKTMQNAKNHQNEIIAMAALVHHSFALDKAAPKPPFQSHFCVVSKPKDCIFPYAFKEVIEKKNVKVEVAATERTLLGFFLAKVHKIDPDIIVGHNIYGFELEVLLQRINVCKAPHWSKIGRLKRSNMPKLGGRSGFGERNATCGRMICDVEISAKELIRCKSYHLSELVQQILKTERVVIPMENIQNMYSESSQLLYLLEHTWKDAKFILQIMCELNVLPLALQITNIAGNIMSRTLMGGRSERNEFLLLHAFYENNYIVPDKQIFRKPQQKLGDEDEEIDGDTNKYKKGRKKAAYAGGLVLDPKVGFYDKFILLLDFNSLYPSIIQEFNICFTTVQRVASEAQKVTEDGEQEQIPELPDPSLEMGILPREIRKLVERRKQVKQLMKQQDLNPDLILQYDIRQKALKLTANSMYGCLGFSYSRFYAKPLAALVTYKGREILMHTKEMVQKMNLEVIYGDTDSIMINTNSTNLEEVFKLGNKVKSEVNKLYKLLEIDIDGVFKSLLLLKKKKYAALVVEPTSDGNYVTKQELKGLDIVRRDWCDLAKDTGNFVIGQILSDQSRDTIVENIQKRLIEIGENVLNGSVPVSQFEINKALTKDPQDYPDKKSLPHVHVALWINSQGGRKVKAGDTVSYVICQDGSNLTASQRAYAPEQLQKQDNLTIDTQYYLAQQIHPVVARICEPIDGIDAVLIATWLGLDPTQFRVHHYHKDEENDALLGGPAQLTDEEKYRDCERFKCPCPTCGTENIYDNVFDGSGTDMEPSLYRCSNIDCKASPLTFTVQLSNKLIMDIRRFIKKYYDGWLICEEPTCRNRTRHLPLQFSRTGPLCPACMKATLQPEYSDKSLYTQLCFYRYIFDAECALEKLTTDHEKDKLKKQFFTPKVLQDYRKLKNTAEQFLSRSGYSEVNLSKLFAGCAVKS
UniProt Q13427: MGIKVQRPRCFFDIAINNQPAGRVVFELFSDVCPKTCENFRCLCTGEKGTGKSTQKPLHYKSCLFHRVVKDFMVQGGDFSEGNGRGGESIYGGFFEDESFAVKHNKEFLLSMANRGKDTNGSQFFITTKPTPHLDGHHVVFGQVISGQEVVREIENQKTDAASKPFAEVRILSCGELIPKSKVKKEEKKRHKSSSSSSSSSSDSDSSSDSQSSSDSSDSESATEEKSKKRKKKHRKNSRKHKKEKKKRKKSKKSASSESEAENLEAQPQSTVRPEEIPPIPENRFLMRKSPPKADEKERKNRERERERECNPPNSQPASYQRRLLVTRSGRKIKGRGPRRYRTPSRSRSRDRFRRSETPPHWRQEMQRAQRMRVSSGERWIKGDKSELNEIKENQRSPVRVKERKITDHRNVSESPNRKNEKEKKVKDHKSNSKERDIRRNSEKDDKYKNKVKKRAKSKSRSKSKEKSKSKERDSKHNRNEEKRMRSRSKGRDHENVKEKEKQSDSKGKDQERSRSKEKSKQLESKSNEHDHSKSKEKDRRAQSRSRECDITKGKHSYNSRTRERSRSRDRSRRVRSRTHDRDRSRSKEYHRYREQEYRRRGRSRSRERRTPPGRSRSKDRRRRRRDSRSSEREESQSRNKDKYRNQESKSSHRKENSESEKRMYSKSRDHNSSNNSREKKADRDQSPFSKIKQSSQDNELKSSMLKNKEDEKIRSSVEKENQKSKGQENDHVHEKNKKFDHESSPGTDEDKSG
UniProt Q9BUI4: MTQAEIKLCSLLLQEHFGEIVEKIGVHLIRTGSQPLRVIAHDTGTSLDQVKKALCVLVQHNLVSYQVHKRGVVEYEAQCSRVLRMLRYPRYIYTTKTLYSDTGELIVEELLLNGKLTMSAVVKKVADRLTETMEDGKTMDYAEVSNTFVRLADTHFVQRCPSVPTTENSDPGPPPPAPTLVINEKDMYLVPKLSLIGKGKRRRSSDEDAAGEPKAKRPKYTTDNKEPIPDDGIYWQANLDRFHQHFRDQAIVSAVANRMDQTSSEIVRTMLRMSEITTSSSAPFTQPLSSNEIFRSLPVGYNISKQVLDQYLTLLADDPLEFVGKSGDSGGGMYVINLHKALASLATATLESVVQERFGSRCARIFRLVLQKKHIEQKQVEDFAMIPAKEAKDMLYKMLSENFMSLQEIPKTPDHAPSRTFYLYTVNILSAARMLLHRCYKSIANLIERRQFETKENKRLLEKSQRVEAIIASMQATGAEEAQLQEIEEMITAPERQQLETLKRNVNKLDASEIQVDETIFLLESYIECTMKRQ
UniProt Q9H9Y6, whole entry, looked up: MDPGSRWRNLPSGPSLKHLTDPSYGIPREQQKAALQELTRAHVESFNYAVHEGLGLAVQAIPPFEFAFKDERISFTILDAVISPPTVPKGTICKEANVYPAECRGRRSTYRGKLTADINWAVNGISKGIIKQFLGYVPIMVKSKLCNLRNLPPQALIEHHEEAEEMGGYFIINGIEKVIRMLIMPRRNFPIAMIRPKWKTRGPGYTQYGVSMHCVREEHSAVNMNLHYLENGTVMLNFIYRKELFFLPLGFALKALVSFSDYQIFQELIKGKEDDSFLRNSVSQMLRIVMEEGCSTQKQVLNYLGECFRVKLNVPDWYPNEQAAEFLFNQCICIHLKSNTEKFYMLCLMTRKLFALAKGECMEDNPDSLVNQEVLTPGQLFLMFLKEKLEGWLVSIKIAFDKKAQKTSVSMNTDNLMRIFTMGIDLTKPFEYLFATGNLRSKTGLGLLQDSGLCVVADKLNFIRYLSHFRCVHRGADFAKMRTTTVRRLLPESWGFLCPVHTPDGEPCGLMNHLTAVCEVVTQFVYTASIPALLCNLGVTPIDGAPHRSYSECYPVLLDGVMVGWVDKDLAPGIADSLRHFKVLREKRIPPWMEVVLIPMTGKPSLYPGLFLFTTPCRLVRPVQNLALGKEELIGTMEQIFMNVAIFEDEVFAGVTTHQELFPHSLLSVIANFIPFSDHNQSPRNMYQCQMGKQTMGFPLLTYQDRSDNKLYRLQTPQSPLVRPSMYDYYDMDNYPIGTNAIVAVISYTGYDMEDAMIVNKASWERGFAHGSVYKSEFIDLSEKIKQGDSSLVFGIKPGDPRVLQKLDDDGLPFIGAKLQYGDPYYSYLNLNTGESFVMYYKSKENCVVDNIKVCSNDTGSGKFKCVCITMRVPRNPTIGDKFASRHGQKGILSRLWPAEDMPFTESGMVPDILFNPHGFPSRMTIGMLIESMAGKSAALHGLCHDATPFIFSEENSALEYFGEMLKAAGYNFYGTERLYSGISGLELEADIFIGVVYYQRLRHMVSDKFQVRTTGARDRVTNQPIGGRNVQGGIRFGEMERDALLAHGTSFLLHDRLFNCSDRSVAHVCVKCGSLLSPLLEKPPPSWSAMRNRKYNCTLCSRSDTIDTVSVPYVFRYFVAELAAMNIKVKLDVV
UniProt Q9P215: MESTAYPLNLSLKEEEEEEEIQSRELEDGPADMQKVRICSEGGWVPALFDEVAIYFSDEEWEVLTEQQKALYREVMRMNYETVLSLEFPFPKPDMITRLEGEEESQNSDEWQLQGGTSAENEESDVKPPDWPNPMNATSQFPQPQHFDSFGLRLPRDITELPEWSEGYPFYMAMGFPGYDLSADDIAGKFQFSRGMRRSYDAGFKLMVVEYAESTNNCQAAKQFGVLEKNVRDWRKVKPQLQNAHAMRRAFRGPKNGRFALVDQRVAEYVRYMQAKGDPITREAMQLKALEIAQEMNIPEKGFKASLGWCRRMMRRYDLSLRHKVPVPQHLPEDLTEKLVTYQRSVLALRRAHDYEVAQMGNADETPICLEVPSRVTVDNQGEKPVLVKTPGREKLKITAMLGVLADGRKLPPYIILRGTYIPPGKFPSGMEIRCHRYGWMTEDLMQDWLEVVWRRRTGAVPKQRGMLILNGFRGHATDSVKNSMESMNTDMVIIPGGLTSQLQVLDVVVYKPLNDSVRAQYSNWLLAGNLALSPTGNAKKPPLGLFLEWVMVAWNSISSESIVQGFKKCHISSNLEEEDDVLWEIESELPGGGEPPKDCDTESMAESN
UniProt Q7Z3K3: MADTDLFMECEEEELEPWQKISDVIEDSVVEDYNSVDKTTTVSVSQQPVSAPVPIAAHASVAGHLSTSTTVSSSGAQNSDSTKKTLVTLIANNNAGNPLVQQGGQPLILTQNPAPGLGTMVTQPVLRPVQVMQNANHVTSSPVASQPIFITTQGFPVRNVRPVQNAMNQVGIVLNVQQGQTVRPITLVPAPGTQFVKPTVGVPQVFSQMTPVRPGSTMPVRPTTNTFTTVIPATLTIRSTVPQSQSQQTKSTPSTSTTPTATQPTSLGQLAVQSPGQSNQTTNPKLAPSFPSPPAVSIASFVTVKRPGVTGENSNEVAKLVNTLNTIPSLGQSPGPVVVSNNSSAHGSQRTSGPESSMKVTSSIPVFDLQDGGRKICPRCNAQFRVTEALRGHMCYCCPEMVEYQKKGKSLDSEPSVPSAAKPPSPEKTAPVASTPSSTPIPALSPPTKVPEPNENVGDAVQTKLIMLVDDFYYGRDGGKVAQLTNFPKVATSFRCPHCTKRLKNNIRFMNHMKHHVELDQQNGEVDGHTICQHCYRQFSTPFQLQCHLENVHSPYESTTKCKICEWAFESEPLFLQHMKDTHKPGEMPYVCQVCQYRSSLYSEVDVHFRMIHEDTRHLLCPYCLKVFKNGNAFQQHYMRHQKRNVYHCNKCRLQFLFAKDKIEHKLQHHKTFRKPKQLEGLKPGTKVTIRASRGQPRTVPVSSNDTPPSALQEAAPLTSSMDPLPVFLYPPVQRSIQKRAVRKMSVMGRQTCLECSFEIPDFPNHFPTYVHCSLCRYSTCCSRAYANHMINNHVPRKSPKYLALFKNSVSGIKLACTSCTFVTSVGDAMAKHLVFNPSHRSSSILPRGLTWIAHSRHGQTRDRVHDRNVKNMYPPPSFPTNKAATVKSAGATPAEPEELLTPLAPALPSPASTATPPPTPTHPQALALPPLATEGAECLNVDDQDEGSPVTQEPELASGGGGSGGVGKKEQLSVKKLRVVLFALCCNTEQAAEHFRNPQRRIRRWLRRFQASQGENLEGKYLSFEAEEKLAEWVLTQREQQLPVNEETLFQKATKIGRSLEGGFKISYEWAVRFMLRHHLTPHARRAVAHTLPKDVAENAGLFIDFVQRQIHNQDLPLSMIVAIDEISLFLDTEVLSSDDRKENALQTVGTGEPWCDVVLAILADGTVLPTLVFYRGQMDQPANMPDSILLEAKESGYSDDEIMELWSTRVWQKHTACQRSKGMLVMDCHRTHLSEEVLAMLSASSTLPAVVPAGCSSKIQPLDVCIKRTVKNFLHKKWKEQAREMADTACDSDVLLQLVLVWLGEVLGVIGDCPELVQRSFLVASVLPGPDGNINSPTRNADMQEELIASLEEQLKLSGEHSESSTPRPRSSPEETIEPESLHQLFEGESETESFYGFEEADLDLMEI
UniProt Q06203, whole entry, looked up: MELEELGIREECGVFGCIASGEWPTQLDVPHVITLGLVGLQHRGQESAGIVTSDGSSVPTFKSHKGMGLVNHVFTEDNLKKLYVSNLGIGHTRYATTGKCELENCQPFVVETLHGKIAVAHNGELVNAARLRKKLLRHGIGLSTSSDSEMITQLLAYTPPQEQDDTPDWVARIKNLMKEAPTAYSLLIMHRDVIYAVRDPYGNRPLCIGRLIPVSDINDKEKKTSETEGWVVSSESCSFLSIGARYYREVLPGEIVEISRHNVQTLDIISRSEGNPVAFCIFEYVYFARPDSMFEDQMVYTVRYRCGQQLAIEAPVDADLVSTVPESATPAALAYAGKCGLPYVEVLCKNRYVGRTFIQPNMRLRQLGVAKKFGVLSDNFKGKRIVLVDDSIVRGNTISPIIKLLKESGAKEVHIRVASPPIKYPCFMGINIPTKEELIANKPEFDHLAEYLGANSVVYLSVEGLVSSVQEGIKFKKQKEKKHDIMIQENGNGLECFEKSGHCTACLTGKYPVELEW
UniProt Q9Y2Y1: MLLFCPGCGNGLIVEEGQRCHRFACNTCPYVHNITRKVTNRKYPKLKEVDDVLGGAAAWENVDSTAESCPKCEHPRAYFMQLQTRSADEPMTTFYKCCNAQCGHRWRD

The other results are listed elsewhere or left out.
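Note: competitive profiling in live THP-1 cells: cysteine peptides tagged with an iodoacetamide desthiobiotin (IA-DTB) probe, intensity after compound treatment relative to DMSO-treated cells.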

Compound in one test: Cc1cc(ccc1-c1ccccc1)C(=O)N1CCCN(CC1)C(=O)CCl [compound 10]
The test can be described thus: probe-labelled cysteine peptide fold change vs DMSO (competition) (log2 fold change); higher = less target engagement (more negative = stronger competition). Particulars: 10 µM; THP-1; incubation time: 4 h.
“PON2_Q15165_42_EVESVDLPHCHLIK (UniProt Q15165)”: the “probe-labelled cysteine peptide fold change” value was -0.264.
The same measure, in the same setting: in the case of “POLA1_P09884_497_GPCWLEVK (UniProt P09884)” it was 0.118; in that of “POLD2_P49005_438_IIRGPEDQTVLLVTVPDFSATQTACLVNLR (UniProt P49005)”, 0.14; in that of “POLA1_P09884_686_NATCGR (UniProt P09884)”, 0.129.
For the target PPIG_Q13427_549_ECDITK (UniProt Q13427), the “probe-labelled cysteine peptide fold change” value turned out to be 0.0707.
On to “POLD1_P28340_360_LALTLRPCAPILGAK (UniProt P28340)”, for which the “probe-labelled cysteine peptide fold change” value is -0.0973.
Still for that read-out and setting: for “POLD1_P28340_1061+1071_CQGSLHEDVICTSR (UniProt P28340)” the value was 0.138.
Same read-out and setting: for “POP1_Q99575_876_GSPEPHTMICVPAK (UniProt Q99575)” the value was -0.284.
On the same count and under the same terms, for “POLE_Q07864_2148_LVDVGEFSEEAQFRDPCR (UniProt Q07864)” the value was -0.167; for “POLD2_P49005_83_KLCELQPEEK (UniProt P49005)”, -0.27; for “POLR3C_Q9BUI4_9_LCSLLLQEHFGEIVEK (UniProt Q9BUI4)”, 0.163.
Consider “POR_P16435_363_HPFPCPTSYR (UniProt P16435)”, for which the “probe-labelled cysteine peptide fold change” value is -0.0503.
The same measure, in the same setting: for “POU2F1_P14859-2_4_MLDCSDYVLDSR (UniProt P14859)” the value was -0.0541; for “POLR2G_P62487_106_VGLFTEIGPMSCFISR (UniProt P62487)”, 0.222; for “POLR1B_Q9H9Y6_1098+1101_KYNCTLCSR (UniProt Q9H9Y6)”, -0.0197.
Same read-out and setting: in the case of “POLD1_P28340_1058_LWTQCQR (UniProt P28340)” it was 0.324; in that of “POLA2_Q14181_198_VLGCPEALTGSYK (UniProt Q14181)”, -0.0865.
Still for that read-out and setting: for “POLR1B_Q9H9Y6_454_TGLGLLQDSGLCVVADK (UniProt Q9H9Y6)” the value was 0.0506; for “POGK_Q9P215_369_AHDYEVAQMGNADETPICLEVPSR (UniProt Q9P215)”, -0.299.
For “PPIL4_Q8WUA2_294_EEDCEK (UniProt Q8WUA2)”, the “probe-labelled cysteine peptide fold change” value was -0.0643.
Same read-out and setting: for “POP1_Q99575_777_EAEEVMDAGCQESAGPER (UniProt Q99575)” the value was 0.013.
Still for that read-out and setting: for “POFUT1_Q9H488_283_STAAPLTMTMCLPDLK (UniProt Q9H488)” the value was -0.0164; for “POMGNT1_Q8WZA1_254_TDVPLSSAEEAECHWADTELNRR (UniProt Q8WZA1)”, 0.0339; for “POLR2A_P24928_981_VVLPCNLLR (UniProt P24928)”, -0.423.
For the target “PPA1_Q15181_270+274_AIVDALPPPCESACTVPTDVDK (UniProt Q15181)”, the “probe-labelled cysteine peptide fold change” value was -0.574.
On the same count and under the same terms, for “POLR2M_P0CAP2_65_AAIAECEEVRR (UniProt P0CAP2)” the value was 0.275.
On the same count and under the same terms, in the case of “POGZ_Q7Z3K3_986_VVLFALCCNTEQAAEHFR (UniProt Q7Z3K3)” it was -0.0541; in that of “POR_P16435_472_VHPNSVHICAVVVEYETK (UniProt P16435)”, 0.0143.
The same measure, in the same setting: for “PPAT_Q06203_207_DPYGNRPLCIGR (UniProt Q06203)” the value was 0.124; for “POLR2B_P30876_221_YAYTGECR (UniProt P30876)”, -0.0276; for “POLD1_P28340_761_VVYGDTDSVMCR (UniProt P28340)”, -0.0809.
For “PPA1_Q15181_274_AIVDALPPPCESACTVPTDVDK (UniProt Q15181)”, the “probe-labelled cysteine peptide fold change” value was -0.0652.
On the same count and under the same terms, in the case of “POLD1_P28340_837_DNCPLVANLVTASLRR (UniProt P28340)” it was -0.23; in that of “POLA1_P09884_1393_SLYTQLCFYR (UniProt P09884)”, 0.158.
On the same count and under the same terms, for “POLR2L_P62875_10_CFTCGK (UniProt P62875)” the value was -0.0403; for “POLR3K_Q9Y2Y1_97_CCNAQCGHR (UniProt Q9Y2Y1)”, 0.226; for “POT1_Q9NUX5_503_SGHEDLELLDLSAPFLIQGTIHHYGCK (UniProt Q9NUX5)”, 0.198.

The same test, now with this note: 50 µM; THP-1; incubation time: 4 h.
On to “PON2_Q15165_42_EVESVDLPHCHLIK (UniProt Q15165)”, for which the “probe-labelled cysteine peptide fold change” value came out at 0.0994.
The same measure, in the same setting: for “POLA1_P09884_497_GPCWLEVK (UniProt P09884)” the value was 0.0533; for “POLD2_P49005_438_IIRGPEDQTVLLVTVPDFSATQTACLVNLR (UniProt P49005)”, -0.0872.
Take “POLA1_P09884_686_NATCGR (UniProt P09884)”: the “probe-labelled cysteine peptide fold change” value was -0.083.
In the case of PPIG_Q13427_549_ECDITK (UniProt Q13427), the “probe-labelled cysteine peptide fold change” value was 0.0987.
The same measure, in the same setting: for “POLD1_P28340_360_LALTLRPCAPILGAK (UniProt P28340)” the value was -0.273; for “POLD1_P28340_1061+1071_CQGSLHEDVICTSR (UniProt P28340)”, -0.343.
The same measure, in the same setting: for “POP1_Q99575_876_GSPEPHTMICVPAK (UniProt Q99575)” the value was 0.301; for “POLE_Q07864_2148_LVDVGEFSEEAQFRDPCR (UniProt Q07864)”, -0.403; for “POLD2_P49005_83_KLCELQPEEK (UniProt P49005)”, -0.596.
Same read-out and setting: in the case of “POLR3C_Q9BUI4_9_LCSLLLQEHFGEIVEK (UniProt Q9BUI4)” it was -0.058; in that of “POR_P16435_363_HPFPCPTSYR (UniProt P16435)”, -0.032; in that of “POU2F1_P14859-2_4_MLDCSDYVLDSR (UniProt P14859)”, -0.281.
Take “POLR2G_P62487_106_VGLFTEIGPMSCFISR (UniProt P62487)”: the “probe-labelled cysteine peptide fold change” value turned out to be 0.588.
Still for that read-out and setting: in the case of “POLR1B_Q9H9Y6_1098+1101_KYNCTLCSR (UniProt Q9H9Y6)” it was -0.678; in that of “POLD1_P28340_1058_LWTQCQR (UniProt P28340)”, 0.509.
The same measure, in the same setting: in the case of “POLA2_Q14181_198_VLGCPEALTGSYK (UniProt Q14181)” it was -0.12.
Still for that read-out and setting: for “POLR1B_Q9H9Y6_454_TGLGLLQDSGLCVVADK (UniProt Q9H9Y6)” the value was 0.0737; for “POGK_Q9P215_369_AHDYEVAQMGNADETPICLEVPSR (UniProt Q9P215)”, -0.0722.
With “PPIL4_Q8WUA2_294_EEDCEK (UniProt Q8WUA2)”, the “probe-labelled cysteine peptide fold change” value was 0.126.
For the target “POP1_Q99575_777_EAEEVMDAGCQESAGPER (UniProt Q99575)”, the “probe-labelled cysteine peptide fold change” value is -0.0568.
Same read-out and setting: in the case of “POFUT1_Q9H488_283_STAAPLTMTMCLPDLK (UniProt Q9H488)” it was -0.0201.
Same read-out and setting: for “POMGNT1_Q8WZA1_254_TDVPLSSAEEAECHWADTELNRR (UniProt Q8WZA1)” the value was -0.0811; for “POLR2A_P24928_981_VVLPCNLLR (UniProt P24928)”, -0.259.
The same measure, in the same setting: in the case of “PPA1_Q15181_270+274_AIVDALPPPCESACTVPTDVDK (UniProt Q15181)” it was -0.594; in that of “POLR2M_P0CAP2_65_AAIAECEEVRR (UniProt P0CAP2)”, 0.232.
Turning to “POGZ_Q7Z3K3_986_VVLFALCCNTEQAAEHFR (UniProt Q7Z3K3)”, the “probe-labelled cysteine peptide fold change” value is -0.0339.
The same measure, in the same setting: in the case of “POR_P16435_472_VHPNSVHICAVVVEYETK (UniProt P16435)” it was 0.0461; in that of “PPAT_Q06203_207_DPYGNRPLCIGR (UniProt Q06203)”, 0.161; in that of “POLR2B_P30876_221_YAYTGECR (UniProt P30876)”, -0.0465.
On the same count and under the same terms, in the case of “POLD1_P28340_761_VVYGDTDSVMCR (UniProt P28340)” it was -0.0891.
On the same count and under the same terms, for “PPA1_Q15181_274_AIVDALPPPCESACTVPTDVDK (UniProt Q15181)” the value was -0.0405; for “POLD1_P28340_837_DNCPLVANLVTASLRR (UniProt P28340)”, -0.589.
Regarding “POLA1_P09884_1393_SLYTQLCFYR (UniProt P09884)”, the “probe-labelled cysteine peptide fold change” value was -0.14.
The same measure, in the same setting: in the case of “POLR2L_P62875_10_CFTCGK (UniProt P62875)” it was -0.098; in that of “POLR3K_Q9Y2Y1_97_CCNAQCGHR (UniProt Q9Y2Y1)”, 0.0468.
The same measure, in the same setting: for “POT1_Q9NUX5_503_SGHEDLELLDLSAPFLIQGTIHHYGCK (UniProt Q9NUX5)” the value was 0.118.
